Results as given in patent EP1075270B1, “SHORT PEPTIDE FOR TREATMENT OF NEUROLOGICAL DEGENERATIVE DISEASES” (Advanced Immunit, Inc., priority 1998, dated 2005).
Not every detail of the peptide structures is certain; ends, links or a residue may be inferred. Ends that are not written are not given here.

Tested on: primary cultures of mixed rat neurons/glia
Experiment: Neuronal survival assay: protection against gp120-mediated neurotoxicity
Assay type: cell-based
Conditions: for preventing neuronal loss caused by gpl20: dose-dependent, Fig. 1; for preventing neuronal loss caused by gpl20 / protection against neuronal loss caused by gpl20: 1 pM gpl20 (RF isolate); for protection against neuronal loss caused by gpl20: peptide at IOuM

Substance | preventing neuronal loss caused by gpl20 | EC50 (inhibition of neuronal death caused by 1 pM gpl20 (RF isolate), four day treatment, neuron-specific enolase positive cell counts) | protection against neuronal loss caused by gpl20 (four day treatment)
IKEYF [IKEYF, Ile-Lys-Glu-Tyr-Phe] | inactive | – | –
IKEYFTS [IKEYFTS, Ile-Lys-Glu-Tyr-Phe-Thr-Ser] | preventing neuronal loss | IOO | fully protective
LESYT [LESYT, Leu-Glu-Ser-Tyr-Thr] | preventing neuronal loss | – | partially protective
